# Results are given in words; binding and its absence hold for the method and conditions named. Binding seen in cells or lysates may run through a third protein. These calls come from enrichment with a bait or labelling near it, and not all partners need be listed. A no says only that the protein was not detected with the bait. For some assays here: Sequences can lack the tags named with a protein.
# The chains behind the UniProt entries cited, without tags or fusion partners. Residues count along the entry.
# UniProt O43586, residues 1-262: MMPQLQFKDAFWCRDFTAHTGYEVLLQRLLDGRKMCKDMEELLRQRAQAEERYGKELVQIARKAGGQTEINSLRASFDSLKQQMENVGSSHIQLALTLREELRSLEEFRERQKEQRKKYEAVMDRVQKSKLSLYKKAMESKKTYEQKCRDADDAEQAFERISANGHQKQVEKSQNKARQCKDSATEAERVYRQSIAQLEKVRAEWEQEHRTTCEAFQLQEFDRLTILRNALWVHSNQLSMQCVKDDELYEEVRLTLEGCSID
# UniProt P35991: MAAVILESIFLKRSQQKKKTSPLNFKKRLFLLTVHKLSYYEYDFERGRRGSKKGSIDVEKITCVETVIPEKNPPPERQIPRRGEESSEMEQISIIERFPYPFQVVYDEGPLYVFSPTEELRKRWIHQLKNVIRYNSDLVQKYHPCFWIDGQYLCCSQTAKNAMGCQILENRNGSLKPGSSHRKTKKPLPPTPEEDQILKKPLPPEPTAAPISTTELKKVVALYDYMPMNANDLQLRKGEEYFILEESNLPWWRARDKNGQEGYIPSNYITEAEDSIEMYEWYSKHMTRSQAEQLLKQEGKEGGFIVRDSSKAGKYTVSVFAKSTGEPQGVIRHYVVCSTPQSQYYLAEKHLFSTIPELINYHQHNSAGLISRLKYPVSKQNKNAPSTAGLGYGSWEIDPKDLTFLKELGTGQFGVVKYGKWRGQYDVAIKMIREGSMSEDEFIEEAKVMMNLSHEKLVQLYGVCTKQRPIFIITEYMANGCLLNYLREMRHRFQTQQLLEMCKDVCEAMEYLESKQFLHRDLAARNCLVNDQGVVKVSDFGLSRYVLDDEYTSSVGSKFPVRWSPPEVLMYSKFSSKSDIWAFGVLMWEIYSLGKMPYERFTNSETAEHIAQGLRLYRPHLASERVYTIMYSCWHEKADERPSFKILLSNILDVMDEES
# UniProt Q9JKF1: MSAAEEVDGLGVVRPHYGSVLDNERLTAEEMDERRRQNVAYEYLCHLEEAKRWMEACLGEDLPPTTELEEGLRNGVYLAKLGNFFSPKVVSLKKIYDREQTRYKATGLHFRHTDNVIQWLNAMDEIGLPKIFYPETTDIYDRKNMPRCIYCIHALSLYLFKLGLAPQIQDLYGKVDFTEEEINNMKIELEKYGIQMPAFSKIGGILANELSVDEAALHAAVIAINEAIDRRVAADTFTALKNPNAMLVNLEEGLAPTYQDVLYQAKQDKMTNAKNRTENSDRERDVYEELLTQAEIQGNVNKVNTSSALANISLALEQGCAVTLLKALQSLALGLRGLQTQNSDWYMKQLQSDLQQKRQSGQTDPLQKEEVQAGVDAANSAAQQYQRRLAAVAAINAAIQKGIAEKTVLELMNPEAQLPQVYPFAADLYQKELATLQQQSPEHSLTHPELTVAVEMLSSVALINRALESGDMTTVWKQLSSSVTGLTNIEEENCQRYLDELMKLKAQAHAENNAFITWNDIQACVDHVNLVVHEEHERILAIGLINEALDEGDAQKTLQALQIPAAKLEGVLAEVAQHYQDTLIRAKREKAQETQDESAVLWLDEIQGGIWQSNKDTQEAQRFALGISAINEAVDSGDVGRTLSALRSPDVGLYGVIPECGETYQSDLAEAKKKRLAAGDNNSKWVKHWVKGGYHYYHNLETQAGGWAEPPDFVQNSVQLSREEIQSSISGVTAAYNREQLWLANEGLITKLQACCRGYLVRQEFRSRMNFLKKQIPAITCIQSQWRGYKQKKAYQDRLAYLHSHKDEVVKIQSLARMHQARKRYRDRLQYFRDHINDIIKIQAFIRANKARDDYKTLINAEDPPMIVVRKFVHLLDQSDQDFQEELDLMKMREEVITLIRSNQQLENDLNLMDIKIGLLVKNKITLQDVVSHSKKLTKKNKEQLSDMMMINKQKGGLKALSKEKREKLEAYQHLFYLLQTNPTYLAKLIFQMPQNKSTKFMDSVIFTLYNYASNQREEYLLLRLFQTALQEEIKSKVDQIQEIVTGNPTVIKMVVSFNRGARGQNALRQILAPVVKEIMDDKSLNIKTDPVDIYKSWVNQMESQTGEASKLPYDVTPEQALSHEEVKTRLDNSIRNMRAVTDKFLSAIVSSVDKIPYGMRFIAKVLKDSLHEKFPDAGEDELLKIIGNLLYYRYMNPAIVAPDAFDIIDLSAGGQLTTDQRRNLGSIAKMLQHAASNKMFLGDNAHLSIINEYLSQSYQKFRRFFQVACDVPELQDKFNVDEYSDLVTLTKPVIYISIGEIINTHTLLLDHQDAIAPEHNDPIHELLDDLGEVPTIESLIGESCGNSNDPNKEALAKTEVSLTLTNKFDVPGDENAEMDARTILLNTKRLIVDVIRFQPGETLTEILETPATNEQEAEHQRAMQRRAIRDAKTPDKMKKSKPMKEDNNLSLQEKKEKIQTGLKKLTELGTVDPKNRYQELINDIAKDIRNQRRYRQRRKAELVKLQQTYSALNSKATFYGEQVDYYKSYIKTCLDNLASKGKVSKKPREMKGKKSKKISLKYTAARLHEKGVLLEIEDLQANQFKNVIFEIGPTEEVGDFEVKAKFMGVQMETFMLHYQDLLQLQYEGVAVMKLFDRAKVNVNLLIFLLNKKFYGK
# UniProt P29352: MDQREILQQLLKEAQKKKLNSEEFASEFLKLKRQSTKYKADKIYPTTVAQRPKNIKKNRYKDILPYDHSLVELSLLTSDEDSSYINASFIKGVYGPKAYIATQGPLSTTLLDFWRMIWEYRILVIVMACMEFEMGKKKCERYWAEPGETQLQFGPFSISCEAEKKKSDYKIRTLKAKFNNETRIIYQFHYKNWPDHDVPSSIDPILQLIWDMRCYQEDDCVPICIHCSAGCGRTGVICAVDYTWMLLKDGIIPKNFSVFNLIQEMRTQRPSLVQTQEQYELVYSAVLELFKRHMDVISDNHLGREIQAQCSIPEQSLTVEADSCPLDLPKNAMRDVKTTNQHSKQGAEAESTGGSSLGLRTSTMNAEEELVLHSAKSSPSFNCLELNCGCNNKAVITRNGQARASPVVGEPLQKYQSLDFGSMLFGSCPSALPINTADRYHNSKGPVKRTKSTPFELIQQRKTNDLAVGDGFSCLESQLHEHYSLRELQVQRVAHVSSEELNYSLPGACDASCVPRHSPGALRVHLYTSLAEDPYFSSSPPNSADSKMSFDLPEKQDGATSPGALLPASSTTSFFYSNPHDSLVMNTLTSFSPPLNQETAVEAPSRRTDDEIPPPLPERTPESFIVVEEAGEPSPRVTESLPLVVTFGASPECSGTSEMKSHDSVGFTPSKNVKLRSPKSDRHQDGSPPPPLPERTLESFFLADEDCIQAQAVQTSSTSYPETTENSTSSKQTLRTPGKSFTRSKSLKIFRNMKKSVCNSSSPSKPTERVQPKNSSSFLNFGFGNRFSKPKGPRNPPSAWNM
# UniProt P26039: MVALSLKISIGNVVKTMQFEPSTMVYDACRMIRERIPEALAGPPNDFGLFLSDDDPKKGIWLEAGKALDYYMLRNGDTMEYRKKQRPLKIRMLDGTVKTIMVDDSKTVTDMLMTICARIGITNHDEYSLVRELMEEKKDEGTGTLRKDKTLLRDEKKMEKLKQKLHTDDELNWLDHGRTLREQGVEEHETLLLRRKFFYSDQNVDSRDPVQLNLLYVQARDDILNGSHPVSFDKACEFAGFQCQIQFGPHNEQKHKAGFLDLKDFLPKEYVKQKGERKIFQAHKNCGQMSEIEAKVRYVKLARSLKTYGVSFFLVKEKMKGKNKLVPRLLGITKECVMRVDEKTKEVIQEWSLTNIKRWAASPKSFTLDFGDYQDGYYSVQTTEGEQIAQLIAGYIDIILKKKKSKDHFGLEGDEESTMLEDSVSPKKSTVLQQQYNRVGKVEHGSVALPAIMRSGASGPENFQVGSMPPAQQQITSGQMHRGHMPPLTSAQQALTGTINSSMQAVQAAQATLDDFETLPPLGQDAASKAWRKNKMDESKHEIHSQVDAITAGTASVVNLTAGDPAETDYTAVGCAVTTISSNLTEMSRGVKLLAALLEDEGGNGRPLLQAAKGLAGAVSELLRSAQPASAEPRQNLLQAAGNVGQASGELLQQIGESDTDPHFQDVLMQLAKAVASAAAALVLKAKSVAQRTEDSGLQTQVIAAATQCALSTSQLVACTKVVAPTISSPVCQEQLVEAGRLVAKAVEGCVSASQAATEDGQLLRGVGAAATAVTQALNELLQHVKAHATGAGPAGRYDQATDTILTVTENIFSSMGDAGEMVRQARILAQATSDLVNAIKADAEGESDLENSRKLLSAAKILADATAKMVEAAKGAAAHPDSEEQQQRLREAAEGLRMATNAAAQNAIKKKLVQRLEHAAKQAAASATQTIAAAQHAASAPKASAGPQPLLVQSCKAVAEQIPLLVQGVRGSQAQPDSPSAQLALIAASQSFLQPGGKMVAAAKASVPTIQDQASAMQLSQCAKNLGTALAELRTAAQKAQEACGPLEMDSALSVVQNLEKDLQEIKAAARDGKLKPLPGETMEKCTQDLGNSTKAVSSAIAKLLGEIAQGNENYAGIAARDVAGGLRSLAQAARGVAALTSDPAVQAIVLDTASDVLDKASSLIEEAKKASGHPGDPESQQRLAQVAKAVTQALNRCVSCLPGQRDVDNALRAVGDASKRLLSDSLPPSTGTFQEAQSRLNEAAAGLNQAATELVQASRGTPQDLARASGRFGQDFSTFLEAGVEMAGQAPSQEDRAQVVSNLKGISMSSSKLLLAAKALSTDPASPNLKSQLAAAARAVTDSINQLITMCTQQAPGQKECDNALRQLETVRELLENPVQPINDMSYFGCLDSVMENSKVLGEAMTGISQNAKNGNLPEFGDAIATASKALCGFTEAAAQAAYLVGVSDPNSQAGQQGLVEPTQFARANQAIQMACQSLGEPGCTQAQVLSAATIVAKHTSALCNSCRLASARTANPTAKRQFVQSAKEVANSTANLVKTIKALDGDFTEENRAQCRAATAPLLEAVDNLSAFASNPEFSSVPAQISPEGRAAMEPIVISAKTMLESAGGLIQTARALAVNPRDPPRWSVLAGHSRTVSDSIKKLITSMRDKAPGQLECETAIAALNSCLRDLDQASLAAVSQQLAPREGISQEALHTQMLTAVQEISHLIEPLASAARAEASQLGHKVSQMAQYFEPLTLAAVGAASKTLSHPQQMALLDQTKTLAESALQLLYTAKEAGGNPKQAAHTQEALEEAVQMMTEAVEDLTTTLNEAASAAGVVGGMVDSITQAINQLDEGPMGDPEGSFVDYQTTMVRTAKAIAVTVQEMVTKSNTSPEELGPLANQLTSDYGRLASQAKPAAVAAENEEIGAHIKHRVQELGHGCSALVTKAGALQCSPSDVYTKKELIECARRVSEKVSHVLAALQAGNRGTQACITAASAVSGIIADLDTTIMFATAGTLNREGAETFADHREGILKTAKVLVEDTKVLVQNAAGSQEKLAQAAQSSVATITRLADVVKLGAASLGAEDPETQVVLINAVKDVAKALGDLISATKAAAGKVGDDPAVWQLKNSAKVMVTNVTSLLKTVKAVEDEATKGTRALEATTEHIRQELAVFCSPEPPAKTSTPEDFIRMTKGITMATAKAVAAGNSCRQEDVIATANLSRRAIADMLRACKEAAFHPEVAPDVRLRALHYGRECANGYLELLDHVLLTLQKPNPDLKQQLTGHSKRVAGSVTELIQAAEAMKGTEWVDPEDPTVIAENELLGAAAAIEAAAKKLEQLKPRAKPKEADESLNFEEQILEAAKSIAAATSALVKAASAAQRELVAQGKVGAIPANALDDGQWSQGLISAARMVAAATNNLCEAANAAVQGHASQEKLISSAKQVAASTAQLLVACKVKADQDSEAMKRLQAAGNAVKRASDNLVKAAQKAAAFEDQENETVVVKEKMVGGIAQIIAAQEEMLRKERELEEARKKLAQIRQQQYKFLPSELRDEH
# B1: Tyrosine-protein phosphatase non-receptor type 12 (enzyme, UniProt P35831 1-775)
# chain: MEQVEILRRFIQRVQAMKSPDHNGEDNFARDFMRLRRLSTKYRTEKIYPTATGEKEENVKKNRYKDILPFDHSRVKLTLKTPSQDSDYINANFIKGVYGPKAYVATQGPLANTVIDFWRMIWEYNVVIIVMACREFEMGRKKCERYWPLYGEDPITFAPFKISCENEQARTDYFIRTLLLEFQNESRRLYQFHYVNWPDHDVPSSFDSILDMISLMRKYQEHEDVPICIHCSAGCGRTGAICAIDYTWNLLKAGKIPEEFNVFNLIQEMRTQRHSAVQTKEQYELVHRAIAQLFEKQLQLYEIHGAQKIADGNEITTGTMVSSIDSEKQDSPPPKPPRTRSCLVEGDAKEEILQPPEPHPVPPILTPSPPSAFPTVTTVWQDSDRYHPKPVLHMASPEQHPADLNRSYDKSADPMGKSESAIEHIDKKLERNLSFEIKKVPLQEGPKSFDGNTLLNRGHAIKIKSASSSVVDRTSKPQELSAGALKVDDVSQNSCADCSAAHSHRAAESSEESQSNSHTPPRPDCLPLDKKGHVTWSLHGPENATPVPDSPDGKSPDNHSQTLKTVSSTPNSTAEEEAHDLTEHHNSSPLLKAPLSFTNPLHSDDSDSDGGSSDGAVTRNKTSISTASATVSPASSAESACTRRVLPMSIARQEVAGTPHSGAEKDADVSEESPPPLPERTPESFVLADMPVRPEWHELPNQEWSEQRESEGLTTSGNEKHDAGGIHTEASADSPPAFSDKKDQITKSPAEVTDIGFGNRCGKPKGPREPPSEWT
# B2: ARF GTPase-activating protein GIT1 (protein, UniProt Q68FF6 1-770)
# chain: MSRKGPRAEVCADCSAPDPGWASISRGVLVCDECCSVHRSLGRHISIVKHLRHSAWPPTLLQMVHTLASNGANSIWEHSLLDPAQVQSGRRKANPQDKVHPIKSEFIRAKYQMLAFVHKLPCRDDDGVTAKDLSKQLHSSVRTGNLETCLRLLSLGAQANFFHPEKGTTPLHVAAKAGQTLQAELLVVYGADPGSPDVNGRTPIDYARQAGHHELAERLVECQYELTDRLAFYLCGRKPDHKNGHYIIPQMADRSRQKCMSQSLDLSELAKAAKKKLQALSNRLFEELAMDVYDEVDRRENDAVWLATQNHSTLVTERSAVPFLPVNPEYSATRNQGRQKLARFNAREFATLIIDILSEAKRRQQGKSLSSPTDNLELSARSQSELDDQHDYDSVASDEDTDQEPLPSAGATRNNRARSMDSSDLSDGAVTLQEYLELKKALATSEAKVQQLMKVNSSLSDELRRLQREIHKLQAENLQLRQPPGPVPPPSLPSERAEHTLMGPGGSTHRRDRQAFSMYEPGSALKPFGGTPGDELATRLQPFHSTELEDDAIYSVHVPAGLYRIRKGVSASSVPFTPSSPLLSCSQEGSRHASKLSRHGSGADSDYENTQSGDPLLGLEGKRFLELSKEDELHPELESLDGDLDPGLPSTEDVILKTEQVTKNIQELLRAAQEFKHDSFVPCSEKIHLAVTEMASLFPKRPALEPVRSSLRLLNASAYRLQSECRKTVPPEPGAPVDFQLLTQQVIQCAYDIAKAAKQLVTITTREKKQ
# B3: Myosin-If (protein, UniProt P70248 1-1099)
# chain: MGSKERFHWQSHNVKQSGVDDMVLLSQITEDAIVRNLHKRFMDDYIFTYIGSVLISVNPFKQMPYFTDREIDLYQGAVQYEEPPHIYALTDNMYRNMLIDCENQCVIISGESGAGKTVAAKYIMGYISKVSGGGDKVQHVKDIILQSNPLLEAFGNAKTVRNNNSSRFGKYFEIQFSRGGEPDGGKISNFLLEKSRVVMQNENERNFHIYYQLLEGASQEQQQNLGIMSQDYYYYLNQSDTYKVEGTDDRSDFSETLSAMQVMGFRQACQQLVLQLVAGILHLGNISFCEEGNYARVESVDSLAFPAYLLGIDSGRLQEKLTSRKMDSKWGGRSESIDVTLNVEQAAYTRDALAKGLYARLFDFLVEAINRAMQKPQEEYSIGVLDIYGFEIFQKNGFEQFCINFVNEKLQQIFIELTLKAEQEEYVQEGIRWTPIEYFNNKIVCDLIENKLSPPGIMSVLDDVCATMHATGGGADQTLLQKLQAAVGTHEHFNSWSAGFVIHHYAGKVSYDVSGFCERNRDVLFSDLIELMQSSDQDFLRMLFPEKLNIDKKGRPSTAGSKIKKQANDLVSTLKKCTPHYIRCIKPNETKRPRDWEESRVKHQVEYLGLRENIRVRRAGFAYRRQFSKFLQRYAILTPETWPRWRGDERQGVQHLLRAVNMEPDQYQMGSTKVFVKNPESLFLLEEMRERKFDGFARTIQKAWRRHVAVRKYEEMREEASNILLNKKERRRNSINRNFVGNYLGLEERPELRQFLAKRERVDFADSVTKYDRRFKPIKRDLILTPKCVYVIGTEKVKRGPEKGLVREVLKKKLDIQALRGVSLSTRQDDFFILQEEAADTFLESIFKTEFVSLLCKRFEEAARRPLPLTFQDILQFRVKKKGWGGGGTRNVTFSAGQVNLAVLKAGGKTLTISLGDGLPKNSKPTRKGLAQGKPRRSAQAPTRAVPWASQGLNRNGATLFPRGEGPYTLEIYIWPQEFPEASTAIHLQPQDASRRPRARPPSEHSTEFLNVPDQGVAGMQRKRSIGQRPVPASRPKPQPRTHGPRCRALYQYIGQDVDELSFNVNEVIEILIEDSSGWWKGRLHGQEGLFPGNYVEKI
# Experiments:
# [1] = molecular target: GST-tagged F-BAR domain of PSTPIP1 (aa 1-262) (UniProt O43586); assay: affinity purification with mass spectrometry; GST-tagged bait on glutathione-sepharose beads; osteoclast lysate pre-incubated with glutathione-sepharose beads 1 h at 4°C, then 1 h with the bait at 4°C; washed 4 times with lysis buffer; SDS-PAGE; semi-quantitative mass spectrometry by MS2 spectral counting; only the target purified
# full-length GST-PSTPIP2 = molecular target: T1, full-length GST-PSTPIP2 (UniProt Q99M15); assay: as above
# T1 sequence: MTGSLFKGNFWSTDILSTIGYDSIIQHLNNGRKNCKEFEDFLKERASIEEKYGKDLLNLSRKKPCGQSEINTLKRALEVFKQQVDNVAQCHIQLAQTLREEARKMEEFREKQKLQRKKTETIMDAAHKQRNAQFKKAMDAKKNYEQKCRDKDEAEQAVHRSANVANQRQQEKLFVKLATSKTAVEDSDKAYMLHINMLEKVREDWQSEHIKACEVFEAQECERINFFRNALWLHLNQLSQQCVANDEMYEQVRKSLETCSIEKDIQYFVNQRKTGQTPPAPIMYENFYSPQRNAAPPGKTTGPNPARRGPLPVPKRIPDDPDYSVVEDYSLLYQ
Molecule,binding [1],binding (full-length GST-PSTPIP2)
Tyrosine-protein kinase BTK (from UniProt P35991 1-659) (enzyme),binds,–
Microtubule-actin cross-linking factor 1 (from UniProt Q9QXZ0 1-7354),binds,–
Ras GTPase-activating-like protein IQGAP1 (from UniProt Q9JKF1 1-1657),binds,binds
Tyrosine-protein phosphatase non-receptor type 22 (from UniProt P29352 1-802) (enzyme),binds,binds
Tyrosine-protein phosphatase non-receptor type 6 (from UniProt P29351-1 1-595) (enzyme),binds,no binding
Talin-1 (from UniProt P26039 1-2541),no binding,binds
B1,binds,binds
B2,binds,–
B3,binds,–
